From publication PMC8893259
No constants are given. Whether binding was seen depends on the method and setting. Some entries that bind do so weakly or less than the wild type.

By UniProt entry, the sequences of proteins in these tests, tags left out.
UniProt P61829: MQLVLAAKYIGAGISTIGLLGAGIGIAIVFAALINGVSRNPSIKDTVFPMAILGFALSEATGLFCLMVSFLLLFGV

Legend:
[1] = target: subunit 9 of yeast mitochondrial ATP synthase (S. cerevisiae (endogenous in yeast mitochondria)) (UniProt P61829); test: native gel or EMSA; BN-PAGE (3-10% polyacrylamide) of digitonin extracts (50 µg protein) of mitochondria from atp6Δ yeast grown in rich galactose; blot probed with antibodies against subunit 9
[2] = target: subunit 9 of yeast mitochondrial ATP synthase (S. cerevisiae (endogenous in yeast mitochondria)) (UniProt P61829); test: native gel or EMSA; BN-PAGE (3-10% polyacrylamide) of digitonin extracts (50 µg protein) of mitochondria from atp12Δ yeast (no F1) grown in rich galactose; blot probed with antibodies against subunit 9

binding [1]: binds
Substance: subunit 9 of yeast mitochondrial ATP synthase (from UniProt P61829 1-76)
binding [2]: no binding (condition: in atp12Δ yeast (F1 absent))
